PubChem BioAssay AID504774 | Drosophila RNAi Screening Center | 2011
Screen: 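Knock-downs that shift viability of MMS-exposed cells relative to untreated ones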 (primary screen). Cells: Drosophila Kc167 cells. Reagent: long dsRNA against Drosophila genes, about 0.25 µg dsRNA per well. Time to read-out: about 6 days: 3 days knock-down, then 3 days with or without MMS. Conditions: methyl methanesulphonate 0.004% (w/v) for 3 days after knock-down. Measured: 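Viability in wells given MMS, read as ATP luminescence, normalised by quantiles plate by plate and averaged across replicates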. Reading the numbers: mean viability with MMS: higher = more surviving cells after MMS.
The deposit covers about 23,000 reagents; below is a random part of those that have a named target and a result. 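Values are quantile-normalised luminescence on an arbitrary scale; higher means more cells surviving MMS.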 Reagents against one gene are numbered here. Names joined by + are all predicted targets of the reagent. Further read-outs or replicates are left out here.

mean viability with MMS, by gene knocked down and reagent
Nipped-B: #1 3.57e6
rdx (roadkill): #1 3.17e6; #2 3.60e6; #3 3.71e6
GstE7 (Glutathione S transferase E7): #1 3.56e6
Obp57a (Odorant-binding protein 57a): #1 3.79e6
CR33294 (pseudo): #1 3.56e6
CG7556: #1 3.66e6
hui (hase und igel): #1 3.56e6
NdufV3 (NADH:ubiquinone oxidoreductase subunit V3): #1 3.68e6
l(2)37Cd (lethal (2) 37Cd): #1 3.54e6
CG14142: #1 3.58e6
CG32432: #1 2.80e6; #2 3.04e6; #3 3.68e6
Srp14 (Signal recognition particle 14): #1 3.64e6
CG30046: #1 3.48e6
mthl9 (methuselah-like 9): #1 3.62e6
Vap33 (VAMP-associated protein 33kDa): #1 3.61e6
E(spl)malpha-BFM (Enhancer of split malpha, Bearded family member): #1 3.35e6
mEFTs (mitochondrial translation elongation factor Ts): #1 3.51e6
Sfp26Ad (Seminal fluid protein 26Ad): #1 3.64e6

Already shown: an excerpt of the list.
mean viability with MMS, by gene knocked down and reagent
l(2)37Cd (lethal (2) 37Cd): #1 3.54e6
CG14142: #1 3.58e6
CG32432: #1 2.80e6; #2 3.04e6; #3 3.68e6
Srp14 (Signal recognition particle 14): #1 3.64e6
CG30046: #1 3.48e6
mthl9 (methuselah-like 9): #1 3.62e6
Vap33 (VAMP-associated protein 33kDa): #1 3.61e6

The results go on:
mean viability with MMS, by gene knocked down and reagent
CG34029: #1 3.52e6
CG13068: #1 3.49e6
CG17919: #1 3.67e6
Dp1 (Dodeca-satellite-binding protein 1): #1 3.51e6
lost: #1 3.50e6; #2 3.57e6; #3 3.47e6
CG31267: #1 3.60e6
Ance (Angiotensin converting enzyme): #1 3.58e6
CG6700: #1 3.39e6
GluRIIC (Glutamate receptor IIC): #1 3.67e6
CG31210 (retired record) + CG4836: #1 3.69e6
CG9164: #1 3.35e6; #2 3.57e6
Phf7 (PHD finger protein 7): #1 3.60e6
lt (light): #1 3.49e6
CG10841: #1 3.37e6
Pisd (Phosphatidylserine decarboxylase): #1 3.51e6
CG15611: #1 3.54e6; #2 3.57e6
CG14860: #1 3.56e6
Cyp6a18 (Cytochrome P450 6a18): #1 3.59e6
CG31639: #1 3.48e6
Ugt302E1 (UDP-glycosyltransferase family 302 member E1): #1 3.44e6
CG17104: #1 3.37e6
mor (moira): #1 3.45e6
PIG-A (Phosphatidylinositol glycan anchor biosynthesis class A): #1 3.56e6
Sans (Scaffold protein containing ankyrin repeats and SAM domain): #1 3.20e6
Gk1 (Glycerol kinase 1): #1 3.46e6; #2 3.50e6
Mipp1 (Multiple inositol polyphosphate phosphatase 1): #1 3.45e6
Grip75: #1 3.51e6
elfless: #1 3.51e6
CG15705: #1 3.56e6
Rtnl2: #1 3.65e6; #2 3.54e6
mei-P26 (meiotic P26): #1 2.67e6; #2 3.70e6
Lst (Limostatin): #1 3.58e6
CG11537: #1 3.53e6
ab (abrupt): #1 2.92e6; #2 3.30e6
CG12691: #1 3.72e6
Lap1: #1 3.38e6
Mcm5 (Minichromosome maintenance 5): #1 3.52e6
CG3397: #1 3.71e6
